Test results: patent US7105647 (WISCONSIN ALUMNI RESEARCH FOUNDATION, dated 2006)

Target: T1, Hsp90
T1 construct: Endogenous Hsp90 of the translation lysate
Test: co-IP of 35S-labelled in vitro translated protein with anti-Hsp90 antibody 3G3p90, phosphoimager
Procedure: Coimmunoprecipitation with Hsp90. Each MOP construct was in vitro translated in the presence of [^35S]-methionine in a TNT coupled transcription/translation system (Promega). Hsp90 immunoprecipitation assays were performed with monoclonal antibody 3G3p90 or a control IgM antibody, TEPC 183 (Sigma) essentially as described. Each immunoprecipitation was subjected to SDS-PAGE, and the resulting gel was dried. The level of radioactivity in each coprecipitated protein band was quantified on a Bio-Rad GS-363 Molecular Imager System. The amount of protein immunoprecipitated with the Hsp90 antibody is presented as a percentage of the amount of murine AHR immunoprecipitated in parallel assays.
4. Interaction of MOPs with Hsp90. In an effort to assess a MOP's ability to interact with Hsp90, we performed coimmunoprecipitation assays with anti Hsp90 antibodies. Given the remarkable stability of the Hsp90 complex with the AHR from the C57BL/6J mouse, we used this receptor species as a reference and compared all interactions relative to it. As additional controls, we immunoprecipitated ARNT and the human AHR as negative and positive controls, respectively. Despite our ability to readily detect huAHR-Hsp90 interactions, we were unable to detect ARNT, MOP2 or MOP5 interactions with Hsp90. In contrast, huAHR, MOP1, MOP3 and MOP4 all immunoprecipitated with HSP90-specific antisera. […]

percent of the amount of murine AHR immunoprecipitated with the Hsp90 antibody: 71%
B1: MOP3 (other)
chain: MSKEAVSLWALTVSLQPPVPLCVCREMTGSGRRKQQCVTLPFISRELCFYLLLFPPPRLEYTEHQGGIKNAREAHSQIEKRRRDKMNSFIDELASLVPTCNAMSRKLDKLTVLRMAVQHMKTLRGATNPYTEANYKPTFLSDDELKHLILRAADGFLFVVGCDRGKILFVSESVFKILNYSQNDLIGQSLFDYLHPKDIAKVKEQLSSSDTAPRERLIDAKTGLPVKTDITPGPSRLCSGARRSFFCRMKCNRPSVKVEDKDFPSTCSKKKADRKSFCTIHSTGYLKSWPPTKMGLDEDNEPDNEGCNLSCLVAIGRLHSHVVPQPVNGEIRVKSMEYVSRHAIDGKFVFVDQRATAILAYLPQELLGTSCYEYFHQDDIGHLAECHRQVLQTREKITTNCYKFKIKDGSFITLRSRWFSFMNPWTKEVEYIVSTNTVVLANVLEGGDPTFPQLTASPHSMDSMLPSGEGGPKRTHPTVPGIPGGTRAGAGKIGRMIAEEIMEIHRIRGSLRSSCGSSPLNITSTPPPDASSPGGKKILNGGTPDIPSSGLLSGQAQENPGYPYSDSSSILGENPHIGIDMIDNDQGSSSPSNDEAAMAVIMSLLEADAGLGGPVDFSDLPWPL
notes: also called huMOP3
